# Source: the supplement of paper PMC10727501
# This is one part of the list. This data set is noisy: repeats of one test often differ as much as different tests do.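 Free-swimming zebrafish larvae were scored for O-bend response probability to dark flashes (naive: first five; training: remaining flashes of four 60-flash blocks; test: later 60-flash block) and for turning toward alternating leftward/rightward LED motion (OMR). Six treated larvae were compared with sixty 0.1% DMSO controls; |SSMD|≥2 defined a hit.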
# Tested on: Danio rerio larvae (5 dpf, TLF)
# Assay: OMR-Perf (SSMD vs DMSO vehicle); higher = higher than vehicle (e.g. higher dark-flash O-bend response probability, or better optomotor performance)
# Details: 10 µM; pre-incubation: 30-90 min
row,SMILES,OMR-Perf
1,Cc1cc(C(=O)CN2CCCC2)c(C)n1-c1ccc(F)cc1,-0.206
2,CN(C)C(=O)Oc1ccc[n+](C)c1.[Br-] [Pyridostigmine Bromide],-0.158
3,"C/C(=C\c1csc(C)n1)[C@H]1C[C@@H]2O[C@]2(C)CCC[C@H](C)[C@H](O)[C@@H](C)C(=O)C(C)(C)[C@H](O)CC(=O)O1 [Epothilone B (EPO906, Patupilone)]",0.411
4,COc1ccc(C(=O)N2CCCC2=O)cc1 [Aniracetam],0.069
5,O=P1(NCCCl)OCCCN1CCCl (stereo not given) [Ifosfamide],0.181
6,O=C1CCC[C@@H]2[C@@H]3CCCN4CCC[C@H](CN12)[C@@H]34 [(+)-Matrine],0.0564
7,NCCC(O)(P(=O)([O-])O)P(=O)([O-])O.[Na+].[Na+] [Pamidronate Disodium],-0.455
8,CN1CCc2cccc3c2C1Cc1ccc(O)c(O)c1-3.CN1CCc2cccc3c2C1Cc1ccc(O)cc1-3 (stereo not drawn) [R-(-)-Apomorphine HCl Hemihydrate],-0.533
9,C[C@]12CC[C@H](O)C[C@@H]1CC[C@@H]1[C@H]2CC[C@]2(C)C(=O)CC[C@@H]12 [Epiandrosterone],-0.96
10,CN1CCN(c2nc3ccccc3nc2Cl)CC1,-0.0683
11,Cc1cccc(Cc2c[nH]cn2)c1C.Cl [Detomidine HCl],-0.83
12,Cc1cccc(C)c1NC(=O)CN1CCCC1=O [Nefiracetam],-0.414
13,c1cc2c(cc1[C@H]1OC[C@H]3[C@H]1CO[C@@H]3c1ccc3c(c1)OCO3)OCO2 [Sesamin],-1.04
14,C[C@H]1CCC/C=C/[C@@H]2C[C@H](O)C[C@H]2[C@H](O)/C=C/C(=O)O1 [Brefeldin A],-1.54
15,CN1[C@@H]2C[C@@H](O)C[C@H]1[C@@H]1O[C@@H]12 [Scopine],-0.0107
16,C=C1C[C@@H]2[C@@H](CC[C@@]3(C)C(=O)CC[C@@H]23)[C@@]2(C)C=CC(=O)C=C12 [Exemestane],0.51
17,CCN(C)C(=O)Oc1cccc([C@H](C)N(C)C)c1.O=C(O)[C@H](O)[C@@H](O)C(=O)O [Rivastigmine Tartrate],0.488
18,CC(=O)O[C@H]1C[C@@H]2CC[C@@H]3[C@@H](CC[C@]4(C)[C@H](OC(C)=O)[C@@H]([N+]5(C)CCCCC5)C[C@@H]34)[C@@]2(C)C[C@@H]1[N+]1(C)CCCCC1.[Br-].[Br-] [Pancuronium dibromide],-0.139
19,C[C@@H]1C(=O)O[C@@H]2O[C@@]3(C)CC[C@H]4[C@@H](C)CC[C@@H]1[C@@]24OO3 [Artemisinin],0.0942
20,C[C@]12CC[C@H](O)CC1=CC[C@@H]1[C@H]2CC[C@]2(C)C(=O)CC[C@@H]12 [Dehydroepiandrosterone (DHEA)],-0.693
21,CN(C)C(=O)C(CCN1CCC(O)(c2ccc(Cl)cc2)CC1)(c1ccccc1)c1ccccc1.Cl [Loperamide HCl],0.294
22,Cn1cc(C2=C(c3cn(C4CCN(Cc5ccccn5)CC4)c4ccccc34)C(=O)NC2=O)c2ccccc21,0.0725
23,C=CCN.Cl.ClCC1CO1 (stereo not given) [Sevelamer HCl],0.447
24,Cc1cccc([C@H](C)c2cnc[nH]2)c1C.Cl [Dexmedetomidine HCl (Precedex)],-1.33
25,CCc1c(C(=O)C(N)=O)c2c(OCC(=O)O)cccc2n1Cc1ccccc1,-0.604
26,CNC(=O)Oc1ccc2c(c1)[C@]1(C)CCN(C)C1N2C.O=C(O)c1ccccc1O (stereo not given in full) [Physostigmine Salicylate],-0.121
27,Cc1cccc(C)c1NC1=NCCCS1.Cl [Xylazine HCl],-0.132
28,Cc1ccccc1-n1c(Cn2cnc3c(N)ncnc32)nc2cccc(C)c2c1=O,0.279
29,CCC1(c2ccc(N)cc2)CCC(=O)NC1=O (stereo not given) [Aminoglutethimide],-0.179
30,Cc1sc2c(c1C)C(c1ccc(Cl)cc1)=NC(CC(=O)Nc1ccc(O)cc1)c1nnc(C)n1-2 (stereo not given),-0.41

# Quoted at random: two records from the list
row,SMILES,OMR-Perf
10,CN1CCN(c2nc3ccccc3nc2Cl)CC1,-0.0683
18,CC(=O)O[C@H]1C[C@@H]2CC[C@@H]3[C@@H](CC[C@]4(C)[C@H](OC(C)=O)[C@@H]([N+]5(C)CCCCC5)C[C@@H]34)[C@@]2(C)C[C@@H]1[N+]1(C)CCCCC1.[Br-].[Br-] [Pancuronium dibromide],-0.139
